PubChem BioAssay AID1259254 | NCATS, 2017

Test: 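Genome-wide screen for genes that prevent DNA re-replication in cancer cells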 (primary screen)
System: human HCT116 colorectal cancer cells
Reagent: single siRNA against human genes
Timing: 3 days
Measured: 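Nuclei stained with Hoechst and imaged; cell-cycle phase assigned by DNA content; G2 share scaled per plate, non-targeting siRNA 0%, GMNN siRNA 100%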
Scale: G2 robust z-score and G2 cells, % of GMNN control: higher = more G2 cells, more excess DNA replication
Hit rule: 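Active siRNAs have a G2 robust z of 5 or more median absolute deviations over the median, which in these data means about 38% or higher of GMNN control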
In all, the deposit lists about 59,000 reagents; this is a random part of them. Over the whole deposit, about 1,550 (2.6%) were called active. 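G2 share is only a proxy for re-replication; each gene was hit by three separate siRNAs, and active genes were retested.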 Entries without a mark were called inactive. The numbers tell different reagents against one gene apart. Not all columns of the deposit are shown. No sequences are given here. The record does not give: the amount of reagent.

MEIS3 #1 — G2 robust z-score = 0.288; G2 cells, % of GMNN control = 4.99
MEIS3 #2 — G2 robust z-score = -1.11; G2 cells, % of GMNN control = -4.85
MEIS3 #3 — G2 robust z-score = 0.387; G2 cells, % of GMNN control = 5.69
NYAP1 #1 — G2 robust z-score = -0.234; G2 cells, % of GMNN control = 1.32
NYAP1 #2 — G2 robust z-score = -0.222; G2 cells, % of GMNN control = 1.41
NYAP1 #3 — G2 robust z-score = -0.632; G2 cells, % of GMNN control = -1.48
RBP2 #1 — G2 robust z-score = -1.22; G2 cells, % of GMNN control = -5.63
RBP2 #2 — G2 robust z-score = 4.25; G2 cells, % of GMNN control = 32.9
RBP2 #3 — G2 robust z-score = 1.5; G2 cells, % of GMNN control = 13.5
LRRC59 #1 — G2 robust z-score = 0.605; G2 cells, % of GMNN control = 7.22
LRRC59 #2 — G2 robust z-score = 1.38; G2 cells, % of GMNN control = 12.7
LRRC59 #3 — G2 robust z-score = 0.574; G2 cells, % of GMNN control = 7.01
EDN3 #1 — G2 robust z-score = -0.0495; G2 cells, % of GMNN control = 2.62
EDN3 #2 — G2 robust z-score = 0.0746; G2 cells, % of GMNN control = 3.49
EDN3 #3 — G2 robust z-score = 0.196; G2 cells, % of GMNN control = 4.35
EGFEM1P #1 — G2 robust z-score = 0.0901; G2 cells, % of GMNN control = 3.6
EGFEM1P #2 — G2 robust z-score = 0.097; G2 cells, % of GMNN control = 3.65
EGFEM1P #3 — G2 robust z-score = -0.448; G2 cells, % of GMNN control = -0.185
EGFEM1P #4 — G2 robust z-score = 0.674; G2 cells, % of GMNN control = 7.71
EGFEM1P #5 — G2 robust z-score = 0.327; G2 cells, % of GMNN control = 5.27
EGFEM1P #6 — G2 robust z-score = -0.181; G2 cells, % of GMNN control = 1.7
TMC5 #1 — G2 robust z-score = 0.546; G2 cells, % of GMNN control = 6.81
TMC5 #2 — G2 robust z-score = -0.701; G2 cells, % of GMNN control = -1.97
TMC5 #3 — G2 robust z-score = -0.109; G2 cells, % of GMNN control = 2.2
EQTN #1 — G2 robust z-score = 0.274; G2 cells, % of GMNN control = 4.89
EQTN #2 — G2 robust z-score = -0.508; G2 cells, % of GMNN control = -0.607
EQTN #3 — G2 robust z-score = 3.69; G2 cells, % of GMNN control = 28.9
OSTF1 #1 — G2 robust z-score = -1.08; G2 cells, % of GMNN control = -4.65
OSTF1 #2 — G2 robust z-score = 0.99; G2 cells, % of GMNN control = 9.93
OSTF1 #3 — G2 robust z-score = -0.98; G2 cells, % of GMNN control = -3.93

Part of the list above, set out differently.
| Gene | siRNA no. | G2 robust z-score | G2 cells, % of GMNN control |
| --- | --- | --- | --- |
| LRRC59 | 2 | 1.38 | 12.7 |
| LRRC59 | 3 | 0.574 | 7.01 |
| EDN3 | 1 | -0.0495 | 2.62 |
| EDN3 | 2 | 0.0746 | 3.49 |
